The supplement of paper PMC10849652
Some of the results follow.

Chains of the proteins cited; added tags and fusions are not shown. Lines headed by an entry give the natural chain unless they say otherwise; changes in a name come on top.
UniProt Q5QP82: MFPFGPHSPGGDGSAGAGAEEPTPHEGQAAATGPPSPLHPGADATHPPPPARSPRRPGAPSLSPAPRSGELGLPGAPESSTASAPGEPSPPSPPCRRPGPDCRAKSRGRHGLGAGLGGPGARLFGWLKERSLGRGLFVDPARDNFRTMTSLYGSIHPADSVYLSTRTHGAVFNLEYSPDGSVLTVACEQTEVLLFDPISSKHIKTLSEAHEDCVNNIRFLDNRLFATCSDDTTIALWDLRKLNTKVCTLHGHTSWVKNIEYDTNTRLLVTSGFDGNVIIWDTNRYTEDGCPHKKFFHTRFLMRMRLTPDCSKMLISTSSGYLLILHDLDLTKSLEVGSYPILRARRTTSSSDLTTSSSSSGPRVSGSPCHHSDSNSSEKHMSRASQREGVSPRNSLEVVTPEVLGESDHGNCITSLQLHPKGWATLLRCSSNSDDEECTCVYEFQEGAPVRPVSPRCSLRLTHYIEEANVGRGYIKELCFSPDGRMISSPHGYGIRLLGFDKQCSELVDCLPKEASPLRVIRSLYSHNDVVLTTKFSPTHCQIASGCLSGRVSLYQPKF
UniProt P35638, whole entry, looked up: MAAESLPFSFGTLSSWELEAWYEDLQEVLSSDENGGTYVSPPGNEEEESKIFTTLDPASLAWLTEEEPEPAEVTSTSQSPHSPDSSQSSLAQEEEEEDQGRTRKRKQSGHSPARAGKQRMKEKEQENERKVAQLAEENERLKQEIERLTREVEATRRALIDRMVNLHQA
UniProt Q6VVX0: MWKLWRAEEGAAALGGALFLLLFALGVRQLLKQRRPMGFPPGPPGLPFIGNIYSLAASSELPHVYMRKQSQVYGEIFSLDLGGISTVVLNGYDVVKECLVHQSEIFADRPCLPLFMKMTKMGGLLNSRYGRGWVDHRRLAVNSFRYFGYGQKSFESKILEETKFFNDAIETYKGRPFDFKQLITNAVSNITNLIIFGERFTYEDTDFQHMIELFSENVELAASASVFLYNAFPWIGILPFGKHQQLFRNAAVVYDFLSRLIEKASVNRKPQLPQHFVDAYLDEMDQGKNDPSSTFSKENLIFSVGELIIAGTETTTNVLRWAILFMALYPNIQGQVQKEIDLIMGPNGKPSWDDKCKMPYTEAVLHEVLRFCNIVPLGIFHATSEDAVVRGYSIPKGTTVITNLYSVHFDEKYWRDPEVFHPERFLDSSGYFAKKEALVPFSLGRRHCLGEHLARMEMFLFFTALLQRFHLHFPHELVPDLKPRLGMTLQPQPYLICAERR
UniProt Q9UBU7: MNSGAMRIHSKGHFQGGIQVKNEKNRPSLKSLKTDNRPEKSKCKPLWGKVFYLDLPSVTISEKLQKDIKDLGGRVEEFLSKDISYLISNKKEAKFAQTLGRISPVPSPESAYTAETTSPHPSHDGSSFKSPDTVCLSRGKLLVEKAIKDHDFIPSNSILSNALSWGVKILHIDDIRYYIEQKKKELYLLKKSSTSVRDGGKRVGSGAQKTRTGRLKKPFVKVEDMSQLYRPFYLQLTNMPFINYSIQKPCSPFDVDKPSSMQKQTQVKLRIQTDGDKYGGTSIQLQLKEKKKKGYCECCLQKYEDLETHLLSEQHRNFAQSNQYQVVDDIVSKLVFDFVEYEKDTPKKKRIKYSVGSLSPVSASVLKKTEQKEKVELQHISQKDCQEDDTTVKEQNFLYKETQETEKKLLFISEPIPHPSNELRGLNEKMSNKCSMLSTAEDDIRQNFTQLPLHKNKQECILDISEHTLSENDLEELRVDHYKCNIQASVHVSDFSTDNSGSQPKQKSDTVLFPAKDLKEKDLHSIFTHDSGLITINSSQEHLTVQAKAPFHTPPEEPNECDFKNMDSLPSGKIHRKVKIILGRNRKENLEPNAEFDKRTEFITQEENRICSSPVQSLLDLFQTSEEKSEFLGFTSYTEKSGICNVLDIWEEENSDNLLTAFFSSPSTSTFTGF
UniProt Q9NX09: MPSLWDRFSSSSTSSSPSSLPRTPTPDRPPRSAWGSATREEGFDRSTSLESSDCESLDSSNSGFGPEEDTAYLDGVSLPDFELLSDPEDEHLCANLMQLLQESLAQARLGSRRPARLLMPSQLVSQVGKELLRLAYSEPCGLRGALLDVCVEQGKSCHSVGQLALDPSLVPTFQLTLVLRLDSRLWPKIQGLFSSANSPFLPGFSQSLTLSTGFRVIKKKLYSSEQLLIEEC
UniProt O43293: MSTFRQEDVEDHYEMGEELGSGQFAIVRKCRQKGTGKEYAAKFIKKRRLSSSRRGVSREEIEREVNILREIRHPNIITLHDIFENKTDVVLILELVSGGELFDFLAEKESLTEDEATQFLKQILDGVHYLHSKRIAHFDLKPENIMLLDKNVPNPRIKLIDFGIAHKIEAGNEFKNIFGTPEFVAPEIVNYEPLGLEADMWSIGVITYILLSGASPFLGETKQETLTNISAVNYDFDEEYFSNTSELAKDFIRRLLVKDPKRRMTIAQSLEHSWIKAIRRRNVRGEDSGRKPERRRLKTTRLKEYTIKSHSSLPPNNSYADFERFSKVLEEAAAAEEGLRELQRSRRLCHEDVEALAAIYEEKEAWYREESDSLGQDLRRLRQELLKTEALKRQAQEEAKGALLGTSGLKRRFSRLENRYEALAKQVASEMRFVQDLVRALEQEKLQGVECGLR
UniProt Q15438: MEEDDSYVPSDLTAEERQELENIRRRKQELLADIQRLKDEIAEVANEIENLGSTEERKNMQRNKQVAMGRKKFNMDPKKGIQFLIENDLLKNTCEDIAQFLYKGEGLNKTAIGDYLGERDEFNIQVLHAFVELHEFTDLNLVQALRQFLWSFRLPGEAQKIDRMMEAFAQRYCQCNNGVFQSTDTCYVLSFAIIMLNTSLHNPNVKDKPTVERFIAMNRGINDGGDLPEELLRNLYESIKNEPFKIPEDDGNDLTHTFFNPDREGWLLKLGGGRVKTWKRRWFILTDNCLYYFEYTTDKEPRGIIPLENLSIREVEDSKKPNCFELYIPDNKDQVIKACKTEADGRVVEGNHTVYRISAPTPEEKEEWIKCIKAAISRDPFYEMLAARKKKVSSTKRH
UniProt Q6ZWL3: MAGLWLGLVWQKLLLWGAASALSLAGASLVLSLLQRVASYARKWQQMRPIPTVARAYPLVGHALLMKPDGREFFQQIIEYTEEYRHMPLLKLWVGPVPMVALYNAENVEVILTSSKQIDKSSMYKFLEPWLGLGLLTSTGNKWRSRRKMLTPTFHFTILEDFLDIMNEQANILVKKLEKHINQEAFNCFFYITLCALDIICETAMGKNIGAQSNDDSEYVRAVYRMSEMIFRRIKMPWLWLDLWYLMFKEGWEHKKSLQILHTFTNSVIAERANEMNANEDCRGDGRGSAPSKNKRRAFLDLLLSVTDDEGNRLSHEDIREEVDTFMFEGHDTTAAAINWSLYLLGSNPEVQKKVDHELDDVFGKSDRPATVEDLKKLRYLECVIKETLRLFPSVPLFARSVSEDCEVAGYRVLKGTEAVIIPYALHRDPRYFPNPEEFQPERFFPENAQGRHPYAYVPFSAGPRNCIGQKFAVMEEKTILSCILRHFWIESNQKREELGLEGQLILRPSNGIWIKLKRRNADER
UniProt Q8N8Z6: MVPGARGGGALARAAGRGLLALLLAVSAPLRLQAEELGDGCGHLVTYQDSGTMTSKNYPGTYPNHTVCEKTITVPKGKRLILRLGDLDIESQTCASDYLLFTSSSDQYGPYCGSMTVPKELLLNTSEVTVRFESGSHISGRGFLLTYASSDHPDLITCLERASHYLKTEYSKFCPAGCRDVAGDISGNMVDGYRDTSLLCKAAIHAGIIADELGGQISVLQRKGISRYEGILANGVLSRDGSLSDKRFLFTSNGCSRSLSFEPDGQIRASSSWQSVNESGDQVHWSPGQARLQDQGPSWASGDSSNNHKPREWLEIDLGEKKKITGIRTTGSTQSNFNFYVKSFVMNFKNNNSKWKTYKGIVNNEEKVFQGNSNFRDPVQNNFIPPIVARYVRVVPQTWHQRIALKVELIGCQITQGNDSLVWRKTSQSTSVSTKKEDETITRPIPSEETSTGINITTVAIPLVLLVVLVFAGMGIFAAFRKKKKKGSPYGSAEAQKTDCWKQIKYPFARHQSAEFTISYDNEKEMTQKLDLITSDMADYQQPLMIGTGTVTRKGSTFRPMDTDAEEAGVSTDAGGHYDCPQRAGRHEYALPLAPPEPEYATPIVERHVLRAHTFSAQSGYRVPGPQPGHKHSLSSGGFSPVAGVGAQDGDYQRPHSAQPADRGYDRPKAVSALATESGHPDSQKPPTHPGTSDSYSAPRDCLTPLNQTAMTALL
UniProt Q16531, whole entry, looked up: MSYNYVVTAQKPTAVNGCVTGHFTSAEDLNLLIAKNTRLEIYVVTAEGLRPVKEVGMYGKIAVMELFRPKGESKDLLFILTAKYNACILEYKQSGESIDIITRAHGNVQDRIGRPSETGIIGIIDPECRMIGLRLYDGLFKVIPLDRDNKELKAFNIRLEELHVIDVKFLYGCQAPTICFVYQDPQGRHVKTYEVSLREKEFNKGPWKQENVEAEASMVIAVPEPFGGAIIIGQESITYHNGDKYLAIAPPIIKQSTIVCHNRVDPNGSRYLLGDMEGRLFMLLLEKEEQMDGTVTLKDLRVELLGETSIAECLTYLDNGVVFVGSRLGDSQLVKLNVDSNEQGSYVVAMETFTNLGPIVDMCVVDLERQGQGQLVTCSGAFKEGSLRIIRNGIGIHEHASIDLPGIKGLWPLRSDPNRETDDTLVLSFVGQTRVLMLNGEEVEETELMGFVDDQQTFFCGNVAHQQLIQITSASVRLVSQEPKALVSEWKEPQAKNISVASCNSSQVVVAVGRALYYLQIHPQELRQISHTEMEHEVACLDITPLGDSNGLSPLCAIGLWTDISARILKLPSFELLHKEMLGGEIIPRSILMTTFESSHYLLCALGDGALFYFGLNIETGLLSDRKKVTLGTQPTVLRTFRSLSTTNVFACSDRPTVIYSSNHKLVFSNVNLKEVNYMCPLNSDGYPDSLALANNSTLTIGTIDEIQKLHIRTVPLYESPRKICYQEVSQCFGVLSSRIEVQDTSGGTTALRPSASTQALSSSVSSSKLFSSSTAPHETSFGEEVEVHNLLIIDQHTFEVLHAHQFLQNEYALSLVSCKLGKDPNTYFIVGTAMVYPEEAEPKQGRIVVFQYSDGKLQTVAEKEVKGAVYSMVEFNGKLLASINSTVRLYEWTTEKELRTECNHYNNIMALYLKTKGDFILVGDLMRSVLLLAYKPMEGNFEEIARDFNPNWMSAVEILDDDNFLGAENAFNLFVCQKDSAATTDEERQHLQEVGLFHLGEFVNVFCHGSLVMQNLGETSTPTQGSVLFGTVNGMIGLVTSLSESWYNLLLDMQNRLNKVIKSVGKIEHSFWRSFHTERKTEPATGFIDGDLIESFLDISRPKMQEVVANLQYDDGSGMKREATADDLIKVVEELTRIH
UniProt Q7L5Y6, whole entry, looked up: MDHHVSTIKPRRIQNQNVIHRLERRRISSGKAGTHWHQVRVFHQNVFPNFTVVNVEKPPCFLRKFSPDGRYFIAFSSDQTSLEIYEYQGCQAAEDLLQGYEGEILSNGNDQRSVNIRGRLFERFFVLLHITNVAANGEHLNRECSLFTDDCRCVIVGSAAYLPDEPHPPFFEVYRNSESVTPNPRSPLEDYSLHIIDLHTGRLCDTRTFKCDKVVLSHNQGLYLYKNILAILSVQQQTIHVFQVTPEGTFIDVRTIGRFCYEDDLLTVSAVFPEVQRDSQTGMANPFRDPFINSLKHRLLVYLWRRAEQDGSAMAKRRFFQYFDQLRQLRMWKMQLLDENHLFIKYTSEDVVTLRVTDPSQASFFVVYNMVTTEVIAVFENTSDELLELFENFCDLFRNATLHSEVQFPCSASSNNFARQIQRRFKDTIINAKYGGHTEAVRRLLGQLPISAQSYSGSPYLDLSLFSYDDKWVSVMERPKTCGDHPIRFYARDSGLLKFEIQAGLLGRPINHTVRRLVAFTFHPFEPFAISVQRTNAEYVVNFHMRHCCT
UniProt Q96QD5: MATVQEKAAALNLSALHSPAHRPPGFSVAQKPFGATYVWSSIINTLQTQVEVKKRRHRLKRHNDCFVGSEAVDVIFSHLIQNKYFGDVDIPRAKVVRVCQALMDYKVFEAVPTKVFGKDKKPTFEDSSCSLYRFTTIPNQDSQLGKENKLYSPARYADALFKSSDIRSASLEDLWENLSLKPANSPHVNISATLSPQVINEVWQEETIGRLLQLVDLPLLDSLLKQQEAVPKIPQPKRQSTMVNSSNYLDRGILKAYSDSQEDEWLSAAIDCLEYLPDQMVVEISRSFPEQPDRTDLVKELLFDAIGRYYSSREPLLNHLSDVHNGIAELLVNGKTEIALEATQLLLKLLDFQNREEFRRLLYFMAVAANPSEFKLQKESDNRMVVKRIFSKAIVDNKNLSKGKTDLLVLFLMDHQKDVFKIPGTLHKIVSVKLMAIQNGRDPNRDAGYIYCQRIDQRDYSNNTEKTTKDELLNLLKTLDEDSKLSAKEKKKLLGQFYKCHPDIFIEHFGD
UniProt Q9BWK5: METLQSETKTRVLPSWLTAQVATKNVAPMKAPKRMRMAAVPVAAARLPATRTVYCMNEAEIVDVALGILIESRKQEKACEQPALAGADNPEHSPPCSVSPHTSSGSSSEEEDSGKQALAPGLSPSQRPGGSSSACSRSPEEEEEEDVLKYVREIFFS

Assays:
Assay in all cases: log2 fold change, soluble protein after heating vs DMSO (PISA); higher = thermal stabilisation; K562 lysate, 10 uM; active = over 0.2 and 3.5 SD of the protein, either way, in both replicates (recomputed)
vemurafenib = compound: CCCS(=O)(=O)Nc1ccc(F)c(C(=O)c2c[nH]c3ncc(-c4ccc(Cl)cc4)cc23)c1F [vemurafenib]
How it was run: (§1)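 The values are log-two fold changes in thermal stability compared with solvent controls and come from duplicates. They were obtained by TMTpro 16plex LC-MS/MS, with channel sums equalised, on the supernatant after 21,000xg for 90 min. That supernatant came from crude K562 extract at 1 mg/mL protein treated with 10 μM compound for 30 min, heated for 3 min across 48°C-58°C, pooled and brought to 0.5% NP-40 at 4°C.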

barasertib = compound: CCN(CCCOc1ccc2c(Nc3cc(CC(=O)Nc4cccc(F)c4)[nH]n3)ncnc2c1)CCOP(=O)(O)O [barasertib]
How it was run: as §1

[1] = compound: CC[C@@H]1C(=O)N(C)c2cnc(Nc3ccc(C(=O)NC4CCN(C)CC4)cc3OC)nc2N1C1CCCC1
How it was run: as §1

[2] = compound: CCn1c(C(=O)N(C2CC2)C2CC2)cc2c3c(ncn3C)c(Nc3cc(C)n(C)n3)nc21
How it was run: as §1

[3] = compound: CCn1cc(-c2ccnc3[nH]c(-c4cccc(CN(C)C)c4)cc23)c(-c2ccc(NC(=O)N(C)C)cc2)n1
How it was run: as §1

[4] = compound: CN1CCC(CNc2ccc3ncc(-c4cccc(OC(F)(F)F)c4)n3n2)CC1
How it was run: as §1

saracatinib = compound: CN1CCN(CCOc2cc(OC3CCOCC3)c3c(Nc4c(Cl)ccc5c4OCO5)ncnc3c2)CC1 [saracatinib]
How it was run: as §1

sotrastaurin = compound: CN1CCN(c2nc(C3=C(c4c[nH]c5ccccc45)C(=O)NC3=O)c3ccccc3n2)CC1 [sotrastaurin]
How it was run: as §1

alvocidib = compound: CN1CC[C@H](c2c(O)cc(O)c3c(=O)cc(-c4ccccc4Cl)oc23)[C@H](O)C1 [alvocidib]
How it was run: as §1

Tubastatin A = compound: CN1CCc2c(c3ccccc3n2Cc2ccc(C(=O)NO)cc2)C1 [Tubastatin A]
How it was run: as §1

[5] = compound: CNC(=O)C1=CC=CC=C1NC2=NC(=NC=C2Cl)NC3=C(C=C(C=C3)N4CCOCC4)OC
How it was run: as §1

defactinib = compound: CNC(=O)c1ccc(Nc2ncc(C(F)(F)F)c(NCc3nccnc3N(C)S(C)(=O)=O)n2)cc1 [defactinib]
How it was run: as §1

[6] = compound: CNc1nc(-c2ccc3c(N)n[nH]c3c2)cc(N2C[C@@H](C(=O)NC3CCCCC3)CC[C@H]2C)n1
How it was run: as §1

encorafenib = compound: COC(=O)N[C@@H](C)CNc1nccc(-c2cn(C(C)C)nc2-c2cc(Cl)cc(NS(C)(=O)=O)c2F)n1 [encorafenib]
How it was run: as §1

[7] = compound: COC(=O)[C@H](CCSC)NC(=O)C1=C(C=C(C=C1)NC[C@H](CS)N)C2=CC=CC=C2
How it was run: as §1

alisertib = compound: COc1cc(Nc2ncc3c(n2)-c2ccc(Cl)cc2C(c2c(F)cccc2OC)=NC3)ccc1C(=O)O [alisertib]
How it was run: as §1

gefitinib = compound: COc1cc2ncnc(Nc3ccc(F)c(Cl)c3)c2cc1OCCCN1CCOCC1 [gefitinib]
How it was run: as §1

[8] = compound: CCCS(=O)(=O)Nc1ccc(F)c(C(=O)c2c[nH]c3ncc(Cl)cc23)c1F
How it was run: as §1

volasertib = compound: CC[C@@H]1C(=O)N(C)c2cnc(Nc3ccc(C(=O)N[C@H]4CC[C@H](N5CCN(CC6CC6)CC5)CC4)cc3OC)nc2N1C(C)C [volasertib]
How it was run: as §1

[9] = compound: COc1cc2nc(-c3cc(F)ccc3O)nc(N[C@@H]3CNC[C@H]3C(C)(C)O)c2cc1OC
How it was run: as §1

Measured: log2 fold change

DCAF10 (UniProt Q5QP82)
inactive: vemurafenib -0.022 | barasertib -0.01 | [1] 0.023 | [2] -0.054 | [3] -0.159 | [4] 0.04 | saracatinib -0.127 | sotrastaurin -0.155 | alvocidib -0.001 | Tubastatin A -0.146 | [5] -0.032 | defactinib 0.054 | [6] 0.128 | encorafenib 0.055 | [7] -0.071 | alisertib -0.019 | gefitinib -0.031

DDIT3 isoform 2 (UniProt P35638)
inactive: vemurafenib -0.012 | [1] 0.11 | sotrastaurin 0.004 | defactinib 0.009 | encorafenib 0.018 | [7] -0.041 | alisertib -0.043 | gefitinib 0.015

DCTN1 isoform 4 (UniProt Q14203)
inactive: vemurafenib 0.07 | [8] 0.089 | [1] 0.139 | volasertib -0.019 | [2] -0.28 | [3] 0.34 | [4] 0.121 | saracatinib 0.123 | sotrastaurin -0.027 | alvocidib 0.3 | Tubastatin A -0.254 | [5] 0.212 | defactinib -0.046 | [6] 0.105 | encorafenib 0.078 | [7] -0.064 | alisertib 0.107 | [9] -0.05 | gefitinib 0.051

DDX46, A0A0C4DG89
inactive: vemurafenib 0.11 | [8] 0.035 | barasertib -0.014 | [1] 0.053 | volasertib -0.085 | [3] 0.014 | [4] 0.099 | saracatinib -0.001 | alvocidib -0.073 | defactinib 0.124 | [6] 0.017 | encorafenib 0.054 | [7] 0.076 | alisertib 0.019 | [9] 0.089 | gefitinib 0.341

CYP2R1 (UniProt Q6VVX0)
inactive: vemurafenib -0.025 | [8] 0.012 | [1] -0.106 | volasertib 0.061 | [2] 0.063 | saracatinib 0.01 | Tubastatin A -0.064 | [5] -0.077 | defactinib 0.027 | [6] -0.022 | encorafenib 0.036 | [7] -0.057 | alisertib 0.033 | [9] -0.054 | gefitinib 0.04

DDX54 isoform 2 (UniProt Q8TDD1)
active: barasertib -0.319
inactive: vemurafenib -0.041 | [8] 0.017 | [1] -0.069 | volasertib -0.045 | [2] 0.053 | [3] -0.056 | [4] 0 | saracatinib -0.015 | sotrastaurin 0.045 | alvocidib -0.037 | Tubastatin A -0.047 | [5] 0.017 | defactinib -0.05 | [6] -0.03 | encorafenib 0.084 | [7] 0.025 | alisertib 0.023 | [9] 0.006 | gefitinib -0.089

DBF4 (UniProt Q9UBU7)
inactive: vemurafenib 0.001 | barasertib 0.054 | [1] -0.015 | [2] 0.001 | [3] -0.003 | [4] -0.245 | saracatinib 0.001 | sotrastaurin -0.004 | alvocidib -0.118 | Tubastatin A -0.072 | [5] -0.025 | defactinib -0.023 | [6] -0.058 | encorafenib 0.04 | [7] -0.072 | alisertib -0.028 | gefitinib -0.029

DFFA isoform 2 (UniProt O00273)
inactive: vemurafenib 0.049 | [8] 0.119 | barasertib -0.113 | volasertib 0.021 | [2] -0.017 | [3] 0.145 | [4] -0.051 | saracatinib -0.056 | sotrastaurin 0.09 | alvocidib 0.079 | Tubastatin A 0.096 | [5] -0.213 | defactinib -0.162 | [6] 0.082 | alisertib -0.023 | [9] -0.023 | gefitinib -0.007

DDIT4 (UniProt Q9NX09)
inactive: vemurafenib 0.067 | [1] 0.161 | sotrastaurin -0.005 | defactinib -0.08 | encorafenib 0.117 | [7] 0.065

DAPK3 (UniProt O43293)
inactive: vemurafenib -0.167 | [8] -0.068 | volasertib 0.021 | [3] -0.009 | [4] 0.337 | alvocidib 0.017 | defactinib -0.019 | [9] -0.131

CYTH1 (UniProt Q15438)
inactive: [8] -0.008 | barasertib -0.052 | [1] 0.011 | volasertib -0.029 | [2] -0.087 | [3] 0.018 | [4] 0.073 | sotrastaurin -0.052 | alvocidib -0.076 | Tubastatin A 0.067 | [5] -0.026 | encorafenib 0.023 | [7] 0.01 | alisertib -0.08 | [9] -0.084 | gefitinib -0.227

DDX39B (UniProt H0Y400)
inactive: [8] -0.048 | volasertib 0.009 | [9] 0.204

DDX39B (UniProt F6R6M7)
inactive: [3] -0.125 | [4] 0.03 | alvocidib 0.103 | alisertib -0.078 | gefitinib 0.221

CYP4V2 (UniProt Q6ZWL3)
inactive: [8] -0.021 | barasertib -0.021 | volasertib 0.05 | [2] -0.12 | saracatinib -0.076 | sotrastaurin -0.17 | Tubastatin A -0.1 | [5] -0.007 | [6] 0.045 | [9] -0.066

DCBLD1 (UniProt Q8N8Z6)
inactive: [8] 0.068 | [1] 0.245 | volasertib 0.146 | [3] -0.008 | [4] 0.06 | saracatinib 0.047 | alvocidib 0.045 | [6] -0.443 | encorafenib -0.232 | [7] 0.059 | [9] 0.141

2 entries picked at random from those above:
DDX39B (UniProt H0Y400)
inactive: [8] -0.048 | volasertib 0.009 | [9] 0.204

DCBLD1 (UniProt Q8N8Z6)
inactive: [8] 0.068 | [1] 0.245 | volasertib 0.146 | [3] -0.008 | [4] 0.06 | saracatinib 0.047 | alvocidib 0.045 | [6] -0.443 | encorafenib -0.232 | [7] 0.059 | [9] 0.141

Further records follow:

DAZAP1 (UniProt K7EQ02)
inactive: alisertib 0.071 | gefitinib -0.084

DEAF1 (UniProt O75398)
inactive: [1] -0.056 | saracatinib 0.138 | [6] 0.354 | encorafenib -0.078 | [7] 0.269

DCTD (UniProt D6RAD7)
inactive: alisertib 0.008 | gefitinib -0.026

DDB1 isoform 2 (UniProt Q16531)
inactive: [8] -0.103 | volasertib 0 | [3] -0.527 | [4] 0.255 | alvocidib -0.377 | [9] 0.041

DET1 isoform 2 (UniProt Q7L5Y6)
inactive: [8] 0.003 | volasertib 0.118 | [2] -0.202 | sotrastaurin -0.031 | Tubastatin A -0.134 | [5] -0.016 | [9] 0.02

DBNL (UniProt Q9UJU6)
inactive: [8] 0.015 | barasertib 0.093 | volasertib -0.004 | [3] 0.067 | [4] 0.026 | saracatinib 0.283 | alvocidib -0.028 | [5] -0.197 | [6] 0.13 | alisertib 0.018 | [9] -0.012 | gefitinib -0.036

DENND5B isoform 2 (UniProt Q6ZUT9)
inactive: barasertib 0.116 | [2] -0.089 | [3] -0.167 | [4] 0.148 | saracatinib -0.121 | alvocidib -0.048 | Tubastatin A 0.136 | [5] -0.036 | [6] 0.083 | alisertib 0.051 | gefitinib 0.202

DCUN1D1 (UniProt C9JVE2)
inactive: [8] -0.057 | barasertib 0.141 | [1] 0.297 | volasertib 0.004 | [2] -0.405 | saracatinib -0.087 | sotrastaurin -0.006 | Tubastatin A 0.061 | [5] -0.097 | [6] 0.254 | encorafenib -0.149 | [7] -0.004 | [9] 0.082

DDX60L (UniProt Q5H9U9)
inactive: [8] 0.024 | volasertib 0.311 | saracatinib 0.014 | [6] 0.021 | [9] -0.012

DEPDC7 (UniProt Q96QD5)
inactive: [1] -0.127 | [3] 0.084 | [4] -0.188 | alvocidib 0.15 | encorafenib -0.08 | [7] 0.109 | alisertib -0.154 | gefitinib 0.152

CYREN isoform 4 (UniProt Q9BWK5)
inactive: [2] 0.07 | [3] 0.058 | [4] -0.09 | saracatinib -0.08 | sotrastaurin 0.007 | alvocidib 0.046 | Tubastatin A 0.099 | [5] 0.161 | [6] 0.103 | alisertib -0.127 | gefitinib -0.063
